Data on 60 molecules can be found in PubChem BioAssay AID493014 (National Center for Advancing Translational Sciences (NCATS), 2011).

The assay in a line: qHTS Assay to Find Inhibitors of Chronic Active B-Cell Receptor Signaling. To be noted: ABC-DLBCL IkBa-CBG/CBR reporter, luminescence ratio (green luciferase fused to IkBa over red control in TMD8 lymphoma cells), 4 h. In short, it runs like this:
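TMD8 human ABC-DLBCL cells with doxycycline-inducible IκBα–green luciferase fusion and unfused red luciferase, in 0.5% FBS medium; compounds up to 46 uM, 4 h at 37C. Green/red luminescence ratio, filter-overlap corrected, fitted to concentration-response curves.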
On the technique in general: qHTS replaces the single test concentration by a dilution series.

[1] abbreviates: measured here: CBR red luminescence, cell number.
The mark [2] stands for this setting: measured here: IkBa-CBG green luminescence.

Usually AC50 stands for the concentration giving half of the maximal activity seen.

The structures appear in SMILES notation. The list shows a part of the results. Further columns of the screen follow, without active or inactive calls. Most of these compounds were active or inconclusive in the main read-out, so they are no random draw. Potencies come from curve fits of mixed quality, noted in brackets.

As for `O=C(NCCCN1CCCC1)c1cc2c(Cl)nc3ccccc3c2s1`, the half-maximal activity concentration (AC50) under setting [1] is 35.5 µM [falling, single point].
The same measure, in the same setting: the value for `C[C@H]1CN([C@@H](C)CO)C(=O)Cc2cc(NC(=O)C3CC3)ccc2O[C@H]1CN(C)Cc1ccc(Oc2ccccc2)cc1` was 23.1 µM [falling, single point]; that for `COc1ccccc1OCC(=O)Nc1sc2c(c1C(N)=O)CCC2` was 5.8 µM [falling, partial curve, poor fit].
The same measure, in the same setting: the result for `COc1cc(/C=C2\SC(=O)N(CC(=O)Nc3ccc(C)cc3)C2=O)cc(Cl)c1OCC(=O)O` reads 12.6 µM [rising, partial curve, poor fit]; that for `O=C(c1ccccc1)N1CCN(c2ncnc3sc4c(c23)CCC4)CC1`, 29.1 µM [falling, single point]; that for `O=C(c1ccccc1)c1ccc2ccccc2n1`, 6.51 µM [rising, partial curve].
Same read-out and setting: the result for `COc1ccc(C(=O)/C=C/c2ccc(-c3ccccc3)cc2)cc1CSCC(=O)O` reads 8.91 µM [falling, partial curve]; that for `c1ccc(Cn2nc(-c3ccccc3)nc2-c2ccccc2)cc1`, 13 µM [rising, partial curve, poor fit].
With `CCCN(CCC)CCCNc1ccc(C(=O)Nc2cccc(OC)c2)cc1[N+](=O)[O-]`, under setting [1], the AC50 was 3.55 µM [falling, full curve].
On the same count and under the same terms, the value for `COc1ccccc1C(c1nnnn1C(C)(C)C)N1CCCCCC1` (stereo not given) was 0.501 µM [falling, partial curve, poor fit]; that for `COc1cccc(OCCn2c(C)c(/C=N/n3cnnc3)c3ccccc32)c1` was 6.31 µM [rising, single point].
Still for that read-out and setting: the value for `O=C(O)CCCN=Cc1c(O)c2ccccc2oc1=O` was 8.91 µM [falling, partial curve, poor fit]; that for `O=C1N=c2ccccc2=C1c1c(O)n(-c2cccc(F)c2)[nH]c1=O` was 20.6 µM [falling, partial curve].
Take `N#C/C(=C/c1ccc(O)c(O)c1)C(=O)NCc1ccc(Cl)cc1`: the AC50 under setting [1] is 2.24 µM [falling, partial curve, poor fit].
Consider `COc1ccc(CN(C)C(=O)C(Cc2ccccc2)NC(=O)c2ccccc2)c(OC)c1` (stereo not given), for which, under setting [1], the half-maximal activity concentration (AC50) is 4.61 µM [falling, full curve, poor fit].
With `COC(=O)Cc1[nH]nc2c1C1(CCSCC1)C(C#N)=C(N)O2`, the AC50 under setting [1] is 5.8 µM [falling, single point].
Take `CC(C)C(=O)c1cn(CC(=O)NCc2ccco2)c2ccccc12`: under setting [1], the AC50 was 29.1 µM [rising, single point].
Still for that read-out and setting: the result for `O=C(NCc1ccccn1)c1ccccc1-c1ccccc1` reads 14.1 µM [rising, single point]; that for `COC(=O)c1ccc(COc2ccc(F)cc2)o1`, 1.26 µM [rising, full curve, poor fit]; that for `COc1ccc(N/C=C\C(=O)c2ccc3c(c2)OCO3)cc1`, 0.411 µM [rising, partial curve, poor fit].
The same measure, in the same setting: the result for `CN(C)c1ccc(/C=C/C(=O)c2ccc(O)cc2)cc1[N+](=O)[O-]` reads 11.2 µM [falling, partial curve]; that for `CC(C)NC(=O)c1c2c(nc3ccccc13)CCCC2`, 0.411 µM [rising, full curve, poor fit].
Turning to `COc1cccc(C(=O)c2sc(NC(C)C)nc2N)c1`, the concentration at half-maximal activity (AC50) runs as follows: under setting [1], 6.51 µM [falling, full curve]; under setting [2], 2.31 µM [rising, full curve, poor fit].
With `COc1cc2c(cc1NC(=O)C(C)NCc1ccccc1)oc1ccccc12` (stereo not given), the AC50 under setting [1] was 3.26 µM [falling, full curve].
On the same count and under the same terms, the result for `CCC(Nc1nc(-c2ccccc2)nc2ccccc12)C(=O)O` (stereo not given) reads 18.4 µM [falling, single point].
In the case of `O=C(O)CSCC(=O)Nc1ccc(C(=O)O)cc1`, the AC50 under setting [1] is 25.9 µM [falling, single point].
Turning to `CN(C)c1ccc(/C=C/C(=O)c2cccc(Br)c2)cc1`, the AC50 under setting [1] is 5.01 µM [rising, full curve, poor fit].
As to `O=C(O)c1[nH]c2ccccc2c1C(c1cc(Br)ccc1O)c1c(C(=O)O)[nH]c2ccccc12`, the AC50 under setting [1] was 31.6 µM [rising, single point].
Regarding `CCOC(=O)Cc1csc(NC(=S)NC(=O)c2ccc(C)cc2)n1`, the AC50 was 6.51 µM [falling, partial curve] under setting [1] and 20.6 µM [falling, single point] under setting [2].
In the case of `NCCNC(=O)Cc1cccc(NC(=O)Cc2ccc(Nc3ncnc4c3ncn4[C@@H]3O[C@H](CO)[C@@H](O)[C@H]3O)cc2)c1`, the concentration at half-maximal activity (AC50) under setting [2] was 2.82 µM [falling, partial curve].
For the molecule `CC1(C)Cc2c(cnn2-c2ccccc2)C(NC(=O)c2ccoc2)C1` (stereo not given), the AC50 under setting [1] is 3.55 µM [rising, partial curve, poor fit].
On to `COc1cc(NC(=O)c2ccccc2[N+](=O)[O-])ccc1NC(=O)C(C)C`, for which the concentration at half-maximal activity (AC50) under setting [1] is 7.31 µM [rising, partial curve, poor fit].
On to `CCOc1ccccc1NC(=O)CN(c1ccc(OC)cc1)S(=O)(=O)c1c(C)noc1C`, for which the concentration at half-maximal activity (AC50) under setting [1] is 12.6 µM [rising, partial curve] and the AC50 under setting [2] is 12.6 µM [falling, single point].
For the molecule `O=C(Nc1ccccn1)c1cc2ccccc2o1`, the AC50 under setting [1] is 3.66 µM [falling, full curve].
Same read-out and setting: the result for `Cc1ccnc(NC(=O)c2ccc(S(=O)(=O)NCc3ccco3)cc2)c1` reads 23.1 µM [falling, single point]; that for `C=CCNC(=O)c1c2c(nc3ccccc13)-c1ccccc1CC2`, 6.31 µM [falling, single point].
For `Cc1cccc(CS(=O)(=O)c2ncc(Cl)c(C(=O)Nc3ccc(F)cc3)n2)c1`, the AC50 under setting [1] is 11.2 µM [falling, partial curve, poor fit].
Turning to `CCCN1CCN(C(=O)c2ccc(-c3ccc([N+](=O)[O-])cc3)o2)CC1`, under setting [1], the concentration at half-maximal activity (AC50) is 7.31 µM [rising, partial curve].
In the case of `CC(=O)Nc1ccc(C=NNC(=O)c2ccc(NS(=O)(=O)c3cccs3)cc2)cc1`, the AC50 under setting [1] was 11.6 µM [falling, partial curve].
The same measure, in the same setting: the result for `COc1ccc(C2SCC(=O)N2CCCN(C)C)cc1` (stereo not given) reads 9.2 µM [rising, partial curve, poor fit]; that for `Cc1cccc(NC(=O)CSCC(=O)Nc2cc(Cl)ccc2N2CCOCC2)c1`, 18.4 µM [falling, single point].
On to `CCCCCCCCCCn1c2c(c(=N)c3c1CCC3)CCC2`, for which the half-maximal activity concentration (AC50) under setting [1] is 8.91 µM [falling, single point].
The same measure, in the same setting: the result for `CC1=CC(=O)C=C(C)C1=NOS(=O)(=O)c1ccccc1` reads 29.1 µM [falling, single point].
Same read-out and setting: the result for `Cc1ccc(NC(=O)COC(=O)c2cc(Cl)ccc2[N+](=O)[O-])c(C)c1` reads 0.00411 µM [rising, full curve, poor fit]; that for `O=C(COc1cccc2c1CCNC2=O)Nc1cccc(F)c1`, 29.1 µM [falling, single point].
Regarding `CCOC(=O)c1c(C)[nH]c(C2=NNC(=NC(C)COC)SC2)c1C` (stereo not given), under setting [1], the half-maximal activity concentration (AC50) is 22.4 µM [falling, single point].
Same read-out and setting: the result for `COC(=O)c1ccc2nc(NC(=O)CN3C(=O)CCC3=O)sc2c1` reads 10 µM [falling, partial curve, poor fit]; that for `COc1ccc(-c2cccc(NS(=O)(=O)c3cc([N+](=O)[O-])ccc3C)c2)nn1`, 0.82 µM [falling, full curve, poor fit].
In the case of `CC(C)c1nnc(NC(=O)c2nc(S(=O)(=O)Cc3ccc(F)cc3)ncc2Cl)s1`, the AC50 is, setting by setting: under setting [1], 22.4 µM [falling, single point]; under setting [2], 11.2 µM [rising, partial curve, poor fit].
Regarding `COC(=O)c1ccc(CSc2nc3ccccc3c(=O)n2N)cc1`, under setting [1], the AC50 was 3.16 µM [falling, partial curve, poor fit].
Same read-out and setting: the result for `CCOC(=O)c1c(N2C(=O)Nc3ccccc3N2O)n[nH]c1-c1cccc(OC)c1` reads 1.78 µM [falling, partial curve, poor fit]; that for `CN(/N=C/c1ccc2c(c1)OCO2)c1ccccc1`, 1.64 µM [rising, full curve, poor fit].
On to `BrC(=C\c1ccccc1)/C=N/N1CCN(Cc2ccccc2)CC1`, for which the concentration at half-maximal activity (AC50) under setting [1] was 3.26 µM [falling, single point].
On the same count and under the same terms, the value for `CCOc1ccccc1-c1nc(-c2cc3ccc(C)cc3[nH]c2=O)no1` was 0.164 µM [falling, full curve, poor fit]; that for `CCN(CC)c1ccc(/C=C2/C(=O)N(c3ccc([N+](=O)[O-])cc3)N=C2N2CCOCC2)cc1` was 35.5 µM [rising, single point].
Turning to `COC(=O)[C@@]12OC[C@]34[C@H]([C@@H](O)[C@@H]1O)[C@@]1(C)C(=O)C(O[C@@H]5OC(CO)[C@@H](O)[C@@H](O)[C@@H]5O)=C[C@@H](C)[C@@H]1C[C@H]3OC(=O)[C@H](OC(=O)/C=C(\C)C(C)(C)OC(C)=O)[C@@H]24` (stereo not given in full), the AC50 runs as follows: under setting [1], 4.61 µM [falling, full curve]; under setting [2], 7.31 µM [rising, partial curve, poor fit].
In the case of `Cc1cc(Cl)c2oc(C(=O)N(C)Cc3cc(C)[nH]n3)c(C)c2c1`, the half-maximal activity concentration (AC50) under setting [1] is 0.141 µM [rising, full curve, poor fit].
For `COc1ccc(-c2n[nH]c(=S)n2-c2ccc3c(c2)OCCO3)cc1`, under setting [1], the AC50 is 29.1 µM [rising, single point].
The same measure, in the same setting: the result for `COc1ccc(C)cc1NC(=O)c1cc2c(s1)CCC2` reads 1.84 µM [rising, partial curve, poor fit]; that for `c1ccc2c(c1)nc(N1CCOCC1)c1nnnn12`, 4.11 µM [falling, full curve].
